Some of the results follow. The data scatter; read single values as rough.
Test system: Candida albicans SN425
Experiment: biofilm OD600 B-score; higher = more biofilm (less inhibition)
Settings: 10 µM; assay detail: High-throughput adherence inhibition optical density biofilm assay with C. albicans SN425 in RPMI-1640/MOPS pH 7.0, 384-well plates. …
Description: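 High-throughput adherence inhibition optical density biofilm assay with C. albicans SN425 in RPMI-1640/MOPS pH 7.0, 384-well plates. Compound (10 µM) was present only during the 90 min adherence step, then washed out, and the biofilm grew 24 h without compound. Biofilm was read as OD600 after removing the media. Scores are the difference from the mean in standard deviations and the plate B-score.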

## NC(=O)Oc1ccc(C2CCCCC2)cc1
  biofilm OD600 B-score: 1.41

## COc1ccc(C(=O)Nc2ccc3c(c2)OCCO3)cc1OC
  biofilm OD600 B-score: 2.28

## CN(C)CC(=O)Nc1ccc(Cl)cc1
  biofilm OD600 B-score: -0.814

## CC(=O)C1=C(O)CCC1=NCCc1ccccc1
  biofilm OD600 B-score: -2.12

## N=Cc1c2ccc[nH]c-2c2ccccc12
  biofilm OD600 B-score: -0.812

## Cc1cc(NC(=O)c2ccc(Br)o2)no1
  biofilm OD600 B-score: -0.0608

## N#Cc1c2n(c3c(=O)[nH]cnc13)CCCC2
  biofilm OD600 B-score: 1.65

## O=C(Nc1ccccc1)Nc1ccccc1Cl
  biofilm OD600 B-score: 4.48

## CN(C)CCN(C)Cc1ccc(F)cc1
  biofilm OD600 B-score: -0.472

## Brc1ccc(CN2CCc3ccccc3C2)o1
  biofilm OD600 B-score: -0.342

## CCCNC(=O)N1CCN(C(=O)NCCC)CC1
  biofilm OD600 B-score: -0.0207

## Nc1ccc(Cl)c(NC(=O)CC(=O)c2ccccc2)c1
  biofilm OD600 B-score: 1.71

## Cc1cc(S(=O)(=O)Nc2ccncc2)c(C)cc1Br
  biofilm OD600 B-score: -0.00203

## COc1ccc(OCC(O)CN2CCc3ccccc3C2)cc1 (stereo not given)
  biofilm OD600 B-score: 1.99

## COC(=O)N1CCN(c2cccc(Cl)c2)CC1
  biofilm OD600 B-score: -1.89

## O=C(CCCOc1ccccc1)N1CCCCCC1
  biofilm OD600 B-score: 0.303

## OCCOCCN1CCN(Cc2ccc(Cl)cc2)CC1
  biofilm OD600 B-score: 0.594

## C1CCCC(NCCN2CCCCC2)CCC1
  biofilm OD600 B-score: -0.251

## O=C(NC(c1ccccc1)c1ccccc1)c1ccoc1
  biofilm OD600 B-score: 0.167

## CC(=O)N(C)c1ccc(NC(=O)CCCc2ccccc2)cc1
  biofilm OD600 B-score: 0.23

## CCCOc1cccc(C(=O)Nc2ccc(OC)cc2OC)c1
  biofilm OD600 B-score: -0.234

## Cc1cccc(NC(=O)c2ccccc2Cl)c1C(=O)O
  biofilm OD600 B-score: -0.251

## O=C(NCCc1ccccc1)c1cnccn1
  biofilm OD600 B-score: -1

## CCC(=O)Nc1ccc(Br)c2cccnc12
  biofilm OD600 B-score: 0.319

## CCOCC(O)CS(=O)(=O)c1ccccn1 (stereo not given)
  biofilm OD600 B-score: -0.0353

## CC(C)N(CCC#N)S(=O)(=O)c1ccccc1
  biofilm OD600 B-score: -0.0295

## CCOC(=O)N1CC(C)N(C(=O)OCC)CC1C (stereo not given)
  biofilm OD600 B-score: -1.51

## O=c1[nH]c2ccccc2n1CCN1CCOCC1
  biofilm OD600 B-score: 0.0261

## COc1ccccc1OCCCSC#N
  biofilm OD600 B-score: 0.887

## O=C(Nc1ccc(N2CCOCC2)cc1)Nc1ccc2snnc2c1
  biofilm OD600 B-score: 0.483

## COc1ccccc1/C=C/CN1CCN(c2ccccn2)CC1
  biofilm OD600 B-score: 0.16

## CCN(CC)CCN(C)Cc1cc(OC)c(OC)c(OC)c1
  biofilm OD600 B-score: -1.05

## CC1CC(O)(C#N)C(C)CN1C (stereo not given)
  biofilm OD600 B-score: 0.0937

## Cc1onc(-c2c(F)cccc2Cl)c1C(=O)N1CCOCC1
  biofilm OD600 B-score: -2.28

## Cc1c(NC(=O)N2CCCCCC2)c(=O)n(-c2ccccc2)n1C
  biofilm OD600 B-score: 0.179

## CC(C)(C)c1nnc(NC(=O)CSc2ncn[nH]2)s1
  biofilm OD600 B-score: -1.24

## O=C(Nc1nc(-c2ccc(F)cc2)cs1)C1CCCO1 (stereo not given)
  biofilm OD600 B-score: 1.07

## Cc1onc(-c2ccccc2Cl)c1C(=O)Nc1ncccc1Cl
  biofilm OD600 B-score: 1.67

## Cc1cccc(C)c1NC(=O)C1CCCCC1C(=O)O (stereo not given)
  biofilm OD600 B-score: -0.188

## O=C(NCc1cccnc1)c1cccc(F)c1
  biofilm OD600 B-score: 1.01

## CC(C)(C)c1ccc(C(=O)Nc2ccc(C(=O)O)cc2)o1
  biofilm OD600 B-score: 0.13

## Cc1ccc(-c2csc(Nc3ccccn3)n2)cc1C
  biofilm OD600 B-score: 2.29

## CC(C)C(=O)Nc1ccc(NC(=O)Cc2ccccc2)cc1
  biofilm OD600 B-score: -2.15

## CC1CCCC(C)N1S(=O)(=O)c1ccc(N)cc1 (stereo not given)
  biofilm OD600 B-score: 0.0201

## CN(C)CCOc1ccccc1C(C)(C)C
  biofilm OD600 B-score: 0.893

## Cc1nc(NC(=O)c2ccc3c(c2)OCO3)sc1C
  biofilm OD600 B-score: 1.12

## CC(=O)c1cccc(NC(=O)c2cccc(F)c2)c1
  biofilm OD600 B-score: 1.17

## CC(C)(C)NS(=O)(=O)c1ccccc1Cl
  biofilm OD600 B-score: 1.78

## Cc1cc(OCC(=O)NCc2ccccn2)ccc1Cl
  biofilm OD600 B-score: -0.171

## Cc1ccc(C(=O)Nc2nc(C)c(C(=O)N(C)C)s2)o1
  biofilm OD600 B-score: 3.12

## COc1ccc2c(CC#N)c[nH]c2c1
  biofilm OD600 B-score: -1.28

## CC(=O)NCCc1ccc(S(=O)(=O)N2CCCC2)cc1
  biofilm OD600 B-score: 1.48

## Cc1onc(-c2ccccc2)c1C(=O)Nc1cccnc1
  biofilm OD600 B-score: -1.62

## CN(C)C(=O)N1CCN(c2nc(-c3ccccc3)cs2)CC1
  biofilm OD600 B-score: -0.016

## CCOc1ccc(NS(=O)(=O)c2cc(Cl)ccc2OC)cc1
  biofilm OD600 B-score: -0.168

## Cc1nc2ccccc2c(=O)n1Cc1cccnc1
  biofilm OD600 B-score: 0.715

## O=C(NCCN1CCOCC1)Nc1cccc(Cl)c1
  biofilm OD600 B-score: 0.691

## O=C(CN1CCOCC1)NCC1COc2ccccc2O1 (stereo not given)
  biofilm OD600 B-score: -1.02

## CCOC(=O)Nc1nnc(-c2ccccc2)s1
  biofilm OD600 B-score: 2.1

## Cc1nc(NC(=O)c2ccncc2)sc1C(=O)N(C)C
  biofilm OD600 B-score: 0.194

## CC1(C)CC(CCN)(c2ccc(F)cc2)CCO1 (stereo not given)
  biofilm OD600 B-score: 1.67

## O=C(O)CCCC(=O)N1CCCc2ccccc21
  biofilm OD600 B-score: 0.143

## Fc1ccccc1COc1ccc(-c2nn[nH]n2)cc1
  biofilm OD600 B-score: 0.977

## CC(C)(C)c1ccc(S(=O)(=O)CCc2ccccn2)cc1
  biofilm OD600 B-score: 1

## CN(CC(=O)Nc1cccc(Cl)c1)S(=O)(=O)c1ccccc1
  biofilm OD600 B-score: 1.54
